Experimental data reported in PMC4585926, “A RANKL mutant used as an inter-species vaccine for efficient immunotherapy of osteoporosis” (Scientific Reports, 2015).
Results are given in words; binding and its absence hold for the method and conditions named. Some entries that bind do so weakly or less than the wild type.

Biological target: T1, mouse RANK extracellular domain (mouse, UniProt O35305 31-214)
T1 construct: RANK, mouse, extracellular domain (plasmid pET28a-mRANK); also called mRANK; mRANK ectodomain; source: plasmid pET28a-mRANK
T1 sequence (looked up): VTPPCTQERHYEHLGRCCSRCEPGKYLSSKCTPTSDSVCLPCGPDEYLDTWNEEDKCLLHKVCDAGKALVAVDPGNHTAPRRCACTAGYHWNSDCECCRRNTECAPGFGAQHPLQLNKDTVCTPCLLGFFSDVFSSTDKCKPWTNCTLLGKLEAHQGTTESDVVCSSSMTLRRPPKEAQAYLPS
Assay: crystal structure; hRANKL and mRANK mixed 1:1 in 0.1 M Tris pH 7.0, 10 mg/mL; sitting drop at 294 K, microseeded with crushed mRANKL-mRANK crystals; 2.8 Å, space group P63; both purified

B1: human RANKL ectodomain (residues 158-317), wild type (ligand, UniProt O14788 158-317, looked up)
chain: SKLEAQPFAHLTINATDIPSGSHKVSLSSWYHDRGWAKISNMTFSNGKLIVNQDGFYYLYANICFRHHETSGDLATEYLQLMVYVTKTSIKIPSSHTLMKGGSTKYWSGNSEFHFYSINVGGFFKLRSGEEISIEVSNPSLLDPDQDATYFGAFKVRDID
notes: RANKL, human, ectodomain, residues 158-317 (plasmid pGEX-6P-hRANKL); Homotrimer in the crystal structure; also called hRANKL; wild-type hRANKL; source: E. coli BL21, purified (glutathione-Sepharose, PreScission cleavage, Superdex 200); not shown: GST, N-terminal, cleaved
Q: With B1 as the binder, how does the binding read?
A: Its binding is “binds”.
